Source: patent publication US12240882B2, “Fusion proteins comprising an engineered knottin peptide and uses thereof” (The Board of Trustees of the Leland Stanford Junior …, priority 2010, dated 2025)
Some results were stated once for a whole list of compounds, not compound by compound. Some compounds share one range, which may span the group rather than tell each member.

B1: AgRp7A-Aras4: AgRP 7A knottin fused to NK1 fragment of HGF (Aras4), SEQ ID NO: 66 (protein)
chain: DYKDDDDKPRGCVRLHESCLGQQVPCCDPAATCYCSGRGDNDLVCYCRYAEGQGKRRNTIHEFKKSAKTTLIKIDPALRIKTEKANTADQCANRCTRSKGLPFTCKAFVFDKARKRCLWFPFNSMSSGVKKEFGHEFDLYENKAYIRDCIIGRGRNYRGTVSITKSGIKCQPWSAMIPHEHSFLPSSYRGEDLRENYCRNPRGEEGGPWCYTSDPEVRYEVCDIPQCSEVETRHHHHHH
B2: EETI2.5F-Aras4: EETI 2.5F knottin fused to NK1 fragment of HGF (Aras4), SEQ ID NO: 87 (protein)
chain: DYKDDDDKPRGCPRPRGDNPPLTCSQDSDCLAGCVCGPNGFCGYAEGQGKRRNTIHEFKKSAKTTLIKIDPALRIKTEKANTADQCANRCTRSKGLPFTCKAFVFDKARKRCLWFPFNSMSSGVKKEFGHEFDLYENKAYIRDCIIGRGRNYRGTVSITKSGIKCQPWSAMIPHEHSFLPSSYRGEDLRENYCRNPRGEEGGPWCYTSDPEVRYEVCDIPQCSEVETRHHHHHH

Tested on: PC3 cells
Experiment: Inhibition of PC3 cell adhesion to vitronectin
Format: cell-based
Conditions: human vitronectin coated wells; read-out: Half-maximal inhibitor concentration, PC3 cell adhesion to vitronectin

Row | Molecule | IC50 [µM]
1 | AgRP mutant, SEQ ID NO: 36 GCVRLHESCLGQQVPCCDPAATCYCSGRGDNDLVCYCR [AgRp7A] | 0.02 to 0.04
2 | B1 | 0.02 to 0.04
3 | B2 | 0.02 to 0.04
